Assay results reported in PubChem BioAssay AID540276 (National Center for Advancing Translational Sciences (NCATS), 2011).
Values joined by “and” are separate entries in the source; they are usually repeats but may differ in a detail not shown here. Equal values may be shown once. About 5,400 (1.8%) of roughly 300,000 compounds were called active. The inconclusive results got no clear call from the source; some entries with a clear call stand among them for comparison. The call rests on the fitted dose curve; tested in HEK293 cells. Potencies of inconclusive entries are doubtful fits and often do not repeat.

Assay: qHTS for inhibitors of binding or entry into cells for Marburg Virus
Details: Marburg virus pseudotyped entry inhibition, cell reporter; activity change, negative = inhibition: at 37.8 µM (top of the series) unless noted
On the % scale 0 is the no-effect control and ±100 the full control effect; potency means the concentration at half of the fitted maximal effect.

Row | Compound | Potency | activity change, negative = inhibition
1 | OC(CN1CCN(c2ccc(F)cc2)CC1)c1ccc(Cl)cc1 (stereo not drawn) | inconclusive: 35.5 µM [inhibitor, single point] | 
2 | COc1ccc(NC(=O)c2ccc3c(c2)CCN3S(=O)(=O)c2ccccc2)cc1 | inconclusive: 35.5 µM [inhibitor, single point] | 
3 | CCc1nc2c(cnn2-c2ccc(Cl)cc2)c(=O)n1-c1ccc(OC)cc1 | inconclusive: 20 µM [inhibitor, single point] | 
4 | CCSc1nnc(NC(=O)c2cc(C)nc3ccccc23)s1 | inconclusive: 2 µM [inhibitor, partial curve, poor fit] | 
5 | Cc1cccn2c(=O)c(C=C(C#N)C#N)c(N3CCN(C)CC3)nc12 | inconclusive: 12.6 µM [inhibitor, partial curve, poor fit] | 
6 | COc1ccc(C(=O)Nc2ccc(-c3cn4ccsc4n3)cc2)cc1S(=O)(=O)N1CCOCC1 | inconclusive: 29.1 µM [activator, single point] | 
7 | CC(=O)Nc1ccc(OC(=O)CC2SC(=O)NC2=O)cc1 (stereo not drawn) |  | inactive: 16.9%
8 | COc1cc(/C=C2\C(=O)ON=C2c2ccc(Cl)cc2)ccc1O | inconclusive: 35.5 µM [activator, single point] | 
9 | O=C(O)c1cccc(Cn2cccn2)c1 | inconclusive: 2.82 µM [activator, partial curve, poor fit] | 
10 | CCc1ccc(CN/C=C/C(=O)c2ccc(Br)cc2)cc1 | inconclusive: 5.01 µM [activator, full curve, poor fit] | 
11 | CCOC(=O)/C(C#N)=C/Nc1cc(C(=O)OCC)cc2c(OC)c(OC)ccc12 | inconclusive: 2.82 µM [inhibitor, partial curve, poor fit] | 
12 | O=C(NCc1ccccc1)C(c1ccccc1)N(C(=O)c1csnn1)c1ccccc1 (stereo not drawn) | inconclusive: 14.1 µM [inhibitor, partial curve, poor fit] | 
13 | COc1ccc(C)cc1S(=O)(=O)N1c2ccccc2CC1C (stereo not drawn) | inconclusive: 13 µM [inhibitor, partial curve, poor fit] | 
14 | O=S1(=O)N[C@@H](Cc2ccccc2)COc2cc(Br)ccc21 |  | inactive: 0%
15 | Fc1ccccc1NC(=S)N1CCCCC1 |  | inactive: 27.5%
16 | Cc1ccc(-n2nnnc2SCc2nnc(-c3ccccc3Br)o2)cc1 |  | inactive: 13.3%
17 | CCOc1cc(N2CCOCC2)c(OCC)cc1NC(=O)COC(=O)c1ccccc1OC(F)F | inconclusive: 0.282 µM [inhibitor, full curve, poor fit] | 
18 | COc1ccc2c(c1)CCc1c(C(=O)NCc3ccco3)noc1-2 | inconclusive: 0.82 µM [activator, full curve, poor fit] | 
19 | CCCCOc1ccc(CSC2=NCCN2)cc1[N+](=O)[O-] | inconclusive: 20.6 µM [inhibitor, single point] | 
20 | Cc1cccc(Cc2nnc(CCC(=O)N(C)CCc3ccccc3)o2)c1 | inconclusive: 7.94 µM [inhibitor, partial curve, poor fit] | 
21 | C=CCn1c(SCC(=O)/C(C#N)=C(\C)N)nc2sc(CC)cc2c1=O | inactive and inconclusive: 32.6 µM [inhibitor, single point] | 
22 | COC(=O)c1ccccc1OCCOc1ccccc1C(=O)OC |  | inactive: 10.9%
23 | COc1ccccc1N1CCN(C(=O)c2cc(S(=O)(=O)N3CCCCC3)ccc2C)CC1 | inconclusive: 20 µM [inhibitor, partial curve, poor fit] | 

Row | Compound | Potency | activity change, negative = inhibition
24 | O=C(NCc1ccco1)Nc1ccc(OC(F)(F)F)cc1 |  | inactive: -2.5%
25 | c1ccc(-c2nc(-c3ccccn3)no2)cc1 | inconclusive: 1.83 µM [inhibitor, full curve, poor fit] | 
26 | O=C1c2c(O)cc(O)cc2O[C@@H](c2ccc(O)c(O)c2)[C@H]1O | inconclusive: 6.51 µM [activator, single point] | 
27 | CCOc1cc(/C=N/NC(=O)NN(C)c2ncc(C(F)(F)F)cc2Cl)ccc1O | inconclusive: 35.5 µM [inhibitor, single point] | 
28 | CCCC(CCC)n1[nH]c(=O)c2c(C)cc(C)nc21 |  | inactive: 3.33%
29 | O=C(OCc1nc2ccccc2s1)c1ccc(Br)o1 | inconclusive: 7.94 µM [activator, partial curve, poor fit] | 
30 | CC(=O)c1cccc(S(=O)(=O)NC2CC2)c1 | inconclusive: 5.62 µM [inhibitor, single point] | 
31 | CC1=NN(c2ccccc2)C(=O)/C1=C\c1ccc(Oc2ccc([N+](=O)[O-])cc2[N+](=O)[O-])cc1 | inconclusive: 22.4 µM [inhibitor, partial curve, poor fit] | 
32 | Cc1c(C(=O)NCc2ccccc2Br)oc2ccc3c(c12)C(=O)CC(C)(C)O3 | inconclusive: 3.55 µM [activator, single point] | 
33 | Cc1ccccc1Nc1nnc(SCC2CCCCO2)s1 (stereo not drawn) | inconclusive: 10.3 µM [inhibitor, partial curve] | 
34 | Clc1ccc(-n2nnnc2-c2cnc(-c3ccncc3)nc2-c2cccs2)cc1 | inconclusive: 20.6 µM [inhibitor, partial curve, poor fit] | 
35 | O=C(N/N=C/c1ccccc1)c1ccc(CN2C(=O)c3cccc4cccc2c34)cc1 |  | inactive: 13.7%
36 | CCCNC(=O)Cn1cnc2sc(C(=O)NCCN(CC)CC)c(C)c2c1=O |  | inactive: 1.34% [at 46.1 µM]
37 | COc1ccc(C(=O)NC(=S)NCc2ccccc2)cc1 |  | inactive: 22.3%
38 | CCCCCc1nc2c(c(=O)c3ccccc3n2C)c(=O)n1C1CCCCCC1 | inconclusive: 14.1 µM [inhibitor, single point] | 
39 | O=C(NC1CCCC1)C(c1ccncc1)N(Cc1ccccc1)C(=O)Cc1cccs1 (stereo not drawn) | inconclusive: 2.59 µM [inhibitor, partial curve, poor fit] | 
40 | Cc1ccc(S(=O)(=O)NC(=O)N2CCCN(Cc3ccc(F)cc3)CC2)cc1 | inconclusive: 15.8 µM [activator, single point] | 
41 | CCc1cccc(NC(=O)C(CC)n2nc(C)c3sc4ccccc4c3c2=O)c1 (stereo not drawn) | inconclusive: 15.8 µM [activator, partial curve, poor fit] | 
42 | COc1ccc(S(=O)(=O)Cc2ccc(C(=O)NCCCN3CCc4ccccc4C3)o2)cc1 |  | inactive: -1.25%
43 | CCc1c(C)c(C#N)c2nc3ccccc3n2c1Nc1cccc(C(F)(F)F)c1 |  | inactive: -24.9% [at 46.1 µM]
44 | COc1cc(/C=C/C(=O)O)ccc1OS(=O)(=O)c1cc(C)ccc1C |  | inactive: 2.3% [at 46.1 µM]
45 | CCOc1ccccc1N1CCN(C(=O)c2ccc3[nH]c4c(c3c2)CCCC4)CC1 | inconclusive: 12.6 µM [inhibitor, single point] | 
46 | CN1CCN(C(=O)c2ccc3c(=O)n(-c4ccc(F)cc4)c(=S)[nH]c3c2)CC1 | inconclusive: 1.26 µM [activator, single point] | 

Shown comma-delimited: two of the compounds above.
Row,Compound,Potency,"activity change, negative = inhibition"
26,O=C1c2c(O)cc(O)cc2O[C@@H](c2ccc(O)c(O)c2)[C@H]1O,"inconclusive: 6.51 µM [activator, single point]",
44,COc1cc(/C=C/C(=O)O)ccc1OS(=O)(=O)c1cc(C)ccc1C,,inactive: 2.3% [at 46.1 µM]

Full records from above:
Cc1cccc(Cc2nnc(CCC(=O)N(C)CCc3ccccc3)o2)c1 as listed: Potency: inconclusive: 7.94 µM [inhibitor, partial curve, poor fit]
C=CCn1c(SCC(=O)/C(C#N)=C(\C)N)nc2sc(CC)cc2c1=O as listed: Potency: inactive and inconclusive: 32.6 µM [inhibitor, single point]
CN1CCN(C(=O)c2ccc3c(=O)n(-c4ccc(F)cc4)c(=S)[nH]c3c2)CC1 as listed: Potency: inconclusive: 1.26 µM [activator, single point]

(next part)

Row | Compound | Potency | activity change, negative = inhibition
47 | CCCN(CC1CC1)c1nc(N)c(C#N)c(CC#N)c1C#N | inconclusive: 35.5 µM [inhibitor, single point] | 
48 | O=C(CCNC(=O)c1ccccc1Cl)Nc1ccc(Cl)c(C(F)(F)F)c1 | inconclusive: 18.4 µM [inhibitor, single point] | 
49 | COCCNC(=O)C(c1ccc(C)o1)N(C(=O)c1snc(C(N)=O)c1N)c1cccc(C)c1 (stereo not drawn) | inconclusive: 25.9 µM [inhibitor, partial curve, poor fit] | 
50 | COc1ccc(/C=C/C(=O)OCC(=O)Nc2ccc(Cl)c(S(=O)(=O)N(C)C)c2)cc1OC |  | inactive: -10.8%
51 | CCOC(=O)c1ccc(N/C=C/C(=O)c2ccc(OC)cc2)cc1 |  | inactive: -3.17%
52 | N#CC(CCc1ccccc1[N+](=O)[O-])(CCc1ccccc1[N+](=O)[O-])C(N)=O | inconclusive: 7.08 µM [inhibitor, full curve, poor fit] | 
53 | CC(C)c1ccc(NC(=O)Cn2c(=O)oc3cc(S(=O)(=O)N4CCCC4)ccc32)cc1 | inconclusive: 35.5 µM [inhibitor, single point] | 
54 | c1ccc(Oc2cccc(OCCCCN3CCCC3)c2)cc1 | active: 20.6 µM | 
55 | CSc1ccc(/C=C/C(=O)Nc2ccccc2)cc1 | active: 7.08 µM | 
56 | O=C(CNc1cccc2ccccc12)N/N=C/c1ccccn1 | inconclusive: 35.5 µM [inhibitor, single point] | 
57 | O=C(CSc1nnc(-c2ccccc2)c(-c2ccccc2)n1)NCc1ccco1 | inconclusive: 9.2 µM [inhibitor, partial curve, poor fit] | 
58 | CCOc1cc(N2CCOCC2)c(OCC)cc1NC(=O)CN1CCCC(C)C1 (stereo not drawn) |  | inactive: -18.9%
59 | CC1=C(C(=O)OCC(C)C)C(c2cccc(F)c2)N2C(=O)C(C)SC2=N1 (stereo not drawn) | inconclusive: 12.6 µM [inhibitor, partial curve, poor fit] | 
60 | CCOC(=O)N1CCC(NC(=O)CCc2nc(C3=CCN(C)CC3)no2)CC1 | inactive | 
61 | COc1cccc(Nc2nc(CN3CCOCC3)nc3sc4c(c23)CCCC4)c1 |  | inactive: 9.52%
62 | CCOC(=O)c1c(C)c(C(=O)NC2CCCCCC2)c(C)n1C |  | inactive: 22.5%
63 | O=C1CN(S(=O)(=O)c2cc(Cl)ccc2Cl)c2ccccc2N1 |  | inactive: -8.5% [at 46.1 µM]
64 | CCn1c(=O)cc(SCC(=O)NCCCN2CCN(c3ccccc3F)CC2)c2ccccc21 | inconclusive: 29.1 µM [inhibitor, single point] | 
65 | O=C(/C=C/c1ccc(Cl)cc1)N1CCN(c2ccccn2)CC1 | inconclusive: 0.631 µM [activator, full curve, poor fit] | 
66 | CN(C)c1ccc(CNC2C3CC4CC(C3)CC2C4)cc1 (stereo not drawn) | active: 14.6 µM | 
67 | CCN(CC)CCC(=O)N1C/C(=C/c2ccccc2)C(=O)/C(=C\c2ccccc2)C1 | active: 11.2 µM | 
68 | CCOC(=O)C1(Cc2ccc(OC)cc2)CCN(C(=O)c2cncs2)CC1 |  | inactive: 7.36% [at 46.1 µM]
